# The campaign covered roughly 220,000 compounds. About 770 (0.35%) were called active. This list was built around the results that the source calls inconclusive (neither active nor inactive); the mix of calls is not that of the screen. No stated cut-off is given here; in the data, active means binding response below about 49% or above about 150%; inconclusive means no clear call, values can overlap the other calls; inactive means in between.
# Chains of the proteins cited; added tags and fusions are not shown.
# UniProt P09471, whole entry, looked up: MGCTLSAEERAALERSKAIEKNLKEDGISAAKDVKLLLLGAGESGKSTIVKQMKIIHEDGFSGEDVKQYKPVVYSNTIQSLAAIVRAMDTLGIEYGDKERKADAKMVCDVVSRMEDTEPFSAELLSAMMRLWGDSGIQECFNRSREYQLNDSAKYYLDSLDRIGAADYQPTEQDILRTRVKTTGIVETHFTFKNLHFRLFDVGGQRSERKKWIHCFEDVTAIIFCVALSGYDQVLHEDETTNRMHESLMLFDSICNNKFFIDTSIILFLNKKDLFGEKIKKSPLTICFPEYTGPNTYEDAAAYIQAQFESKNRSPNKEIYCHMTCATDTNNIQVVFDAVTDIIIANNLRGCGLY
# Target: Guanine nucleotide-binding protein G(o) subunit alpha (Homo sapiens) (UniProt P09471)
# Assay: RGS7-Galphao binding modulators, primary screen, biochemical, multiplexed bead flow cytometry (AID 1439);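 further: fluorescent Galphao held in activated GDP-AlF4 state binding bead-coupled RGS7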
# Conditions: at 10 µM, actives lie on both sides
row,SMILES,binding response (% of control)
1,Cc1ccc(NC(=O)CN2C(=O)S/C(=C\c3ccccn3)C2=O)cc1,inconclusive: 86.3%
2,Cc1c(S(=O)(=O)c2ccccn2)c(N)n(Cc2cccc(Cl)c2)c1C,inconclusive: 100%
3,COC(=O)c1cc(C(=O)NCCCN2CCOCC2)cc([N+](=O)[O-])c1,inconclusive: 108%
4,COc1ccccc1-c1c(NC(=O)c2ccco2)n(C)c2ccccc2c1=O,inconclusive: 121%
5,CCn1cc(C(=O)O)c(=O)c2cc(F)c(N3CCN(S(=O)(=O)c4ccc(NC(=O)OC)cc4)CC3)cc21,inactive: 80.2%
6,CCC(C)NC(=S)N(CCc1ccccc1)Cc1cc2cc(OC)c(OC)cc2[nH]c1=O (stereo not given),inactive: 102%
7,CSc1ccc(CNc2nc3ccccc3n3cnnc23)cc1,inconclusive: 138%
8,O=C(c1cnccn1)N(Cc1ccco1)C1(C(=O)NC2CCCC2)CCCCC1,inactive: 102%
9,Cc1ccc(C2=NN(C(=O)COc3ncnc4ccccc34)C(c3ccco3)C2)cc1 (stereo not given),inconclusive: 82.7%
10,COc1ccc(CNC(=O)CCC(=O)Nc2nnc(CC(C)C)s2)cc1,inconclusive: 69.2%
11,CC(NC(=O)C1CCCN1S(=O)(=O)c1ccc2c(c1)n(C)c(=O)c(=O)n2C)c1ccccc1 (stereo not given),inconclusive: 93.2%
12,NC(=O)c1cc2c3ccccc3ccn2c1-c1ccccc1,inconclusive: 96.1%
13,COc1cc(NC(=O)COc2ccc(Cl)cc2)ccc1NC(=O)C(C)C,inconclusive: 91.3%
14,O=S1(=O)CCC(N=Cc2cc(Br)ccc2O)C1 (stereo not given),active: 151% [activator]
15,O=C(CSc1nc2ccccc2[nH]1)N1CCN(S(=O)(=O)c2ccc(Cl)cc2)CC1,inactive: 101%
16,CC(C)CCN(C(=O)COc1ccc(C#N)cc1)c1c(N)n(Cc2ccccc2)c(=O)[nH]c1=O,inactive: 105%
17,COc1ccc(NC(=O)CC(CC(=O)O)c2cc(OC)c(OC)c(OC)c2)cc1 (stereo not given),inconclusive: 130%
18,COc1ccc(CNC(=O)CCN2C(=O)c3ccncc3C2=O)cc1OC,inconclusive: 91.9%
19,CNC(=O)c1ccccc1S(=O)c1ccccc1COC(C)=O (stereo not given),inconclusive: 84.3%
20,O=C(COC(=O)c1ccc(O)cc1)Nc1cccc(S(=O)(=O)NC2=NCCCCC2)c1,inconclusive: 94.6%
21,O=C(c1cc(=O)[nH]c2ccccc12)N1CCN(c2ccc([N+](=O)[O-])cc2)CC1,inconclusive: 113%
22,N#CCSc1nc2ccccc2o1,inconclusive: 59.7%
23,COc1ccc(C(=O)N/C(=C/c2cccnc2)C(=O)N2CCOCC2)cc1OC,inconclusive: 162%

row,SMILES,binding response (% of control)
1,CCCCOC(=O)c1nnc(-c2ccc(Cl)cc2)o1,inconclusive: 47.1%
2,Cc1cc(C(=O)NCc2ccco2)c2ccccc2n1,inconclusive: 94.4%
3,CCOC(=O)C(=O)NNc1ccccc1OC,inconclusive: 77.7%
4,CC(=O)Nc1ccc(NC(=O)c2ccco2)cc1,inactive: 84.7%
5,O=C(c1ccc(NS(=O)(=O)c2ccc3c(c2)OCCO3)cc1)N1CCCCC1,inconclusive: 80.6%
6,Cc1ccc(NC(=O)C2CC(=O)Nc3ncnn32)cc1Cl (stereo not given),inconclusive: 84.1%
7,CCOCCCn1c(=NC(C)=O)c(C#N)cc2c(=O)n3cccc(C)c3nc21,inconclusive: 133%
8,CCOCc1nnc(NC(=O)c2cc(C(=O)OC)cc([N+](=O)[O-])c2)s1,inconclusive: 97.2%
9,COc1ccc(S(=O)(=O)Nc2ccccc2N2CCOCC2)cc1[N+](=O)[O-],inconclusive: 96.6%
10,O=C(NCC1CC1)c1ccc(Oc2cc(Cl)cc(Cl)c2)o1,inconclusive: 70.4%
11,CC(C)(C)C(=O)NC(=S)Nc1ccc(C(F)(F)F)cc1,inconclusive: 68.9%
12,Cc1ccc(C2C(C(=O)c3ccco3)=C(O)C(=O)N2c2ncccn2)cc1 (stereo not given),inconclusive: -2.49%
13,NNc1nc2c(-c3ccc(F)cc3)nnn2c2ccccc12,inconclusive: 107%
14,CC(=O)c1cccc(NC(=O)/C(=C\c2cccnc2)NC(=O)c2ccco2)c1,inconclusive: 100%
15,C=CCNC(=S)NNC(=O)c1ccccc1OCC,inconclusive: 115%
16,O=C(NC1CC1)C1=C[C@@H](c2coc3ccccc3c2=O)C[C@@H](OCCCCO)O1,inconclusive: 93.7%
17,O=[N+]([O-])c1ccccc1S(=O)(=O)N1CCN(Cc2cc3c(cc2O)OCO3)CC1,inconclusive: 109%
18,Cc1ccc(CN2CC(C(=O)Nc3ccc(F)c([N+](=O)[O-])c3)CC2=O)cc1 (stereo not given),inactive: 99.2%
19,O=C(Nc1ccc(S(=O)(=O)Nc2ncccn2)cc1)c1cnc(Cl)c(Cl)c1,inconclusive: 91.2%
20,CCN(Cc1ccccc1)C(=O)Cn1c(C(C)O)nc2ccccc21 (stereo not given),inconclusive: 116%
21,COc1ccc(N(CC(=O)Nc2cccc(C)c2C)S(=O)(=O)c2c(C)[nH]c(=O)[nH]c2=O)cc1,inconclusive: 91.8%
22,CC1CCN(c2ccccc2NC(=O)c2ccc(C#N)cc2F)CC1,inconclusive: 109%
23,CC(NCC(O)c1ccc([N+](=O)[O-])cc1)C12CC3CC(CC(C3)C1)C2 (stereo not given),inconclusive: 49%

row,SMILES,binding response (% of control)
1,Cc1cc(C)n2nc(C(=O)Nc3c(C)nn(Cc4ccc(F)cc4)c3C)cc2n1,inconclusive: 117%
2,CN(C)C=NC(=O)c1cc(C(=O)c2ccc(Cl)cc2)c[nH]1,inconclusive: 103%
3,COc1cc(C2/C(=C(\O)c3ccc4c(c3)CC(C)O4)C(=O)C(=O)N2Cc2ccco2)ccc1O (stereo not given),active: 17.7%
4,Nc1c(C(=O)Nc2ccccc2)sc2ncc([N+](=O)[O-])cc12,inconclusive: 190%
5,Nc1cc(-c2cccc(F)c2)nn1S(=O)(=O)c1cccc2nsnc12,inactive: 98.6%
6,CCN(CC)c1ccc(C(=S)NCc2ccccc2)cc1,inactive: 133%
7,CC(=O)NCCC(=O)Nc1ccc(C(N)=O)cc1,inconclusive: 91.3%
8,COc1ccc(OC)c(CCNC(=O)C(=O)Nc2ccc3nc4n(c(=O)c3c2)CCCCC4)c1,inconclusive: 98.5%
9,O=C(Cc1ccc(Cl)cc1)c1ccc(O)cc1,inconclusive: 70.4%
10,Cc1cc(C)cc(NC(=O)C(=O)NCCc2c[nH]c3ccccc23)c1,inconclusive: 105%
11,Cn1nccc1C(=O)N/N=C/c1ccccc1[N+](=O)[O-],inconclusive: 83.6%
12,COC(=O)c1ccc(COc2ncnc3sccc23)cc1,inconclusive: 83.7%
13,Cc1nc2ccccc2c(=O)n1/N=C/c1ccc2ccccc2c1O,inconclusive: 67.8%
14,O=C(Nc1ccc(F)cc1)C1=CC(=O)N2CCN=C2S1,inactive: 119%
15,Cc1c(C(=O)NNc2cc(=O)n(C)c(=O)n2C)cccc1[N+](=O)[O-],inactive: 105%
16,COc1ccc(/C=N/NC(=O)c2ccncc2)cc1COc1ccc(NC(C)=O)cc1,inconclusive: 140%
17,CCOC(=O)Cc1c(C)nc(Cc2ccc(OC(C)C)cc2)[nH]c1=O,inactive: 103%
18,Cc1nc(C)c(C(=O)O)c(-c2ccsc2)c1C(=O)O,inconclusive: 101%
19,CCCCNc1nc(C)c(C(C)=O)cc1C#N,inconclusive: 109%
20,COc1ccc(CNC(=S)Nc2ccccc2-c2ccccc2)cc1,inconclusive: 104%
21,O=C(CSc1nnc(Nc2ccccc2)s1)NCc1ccco1,inactive: 106%
22,C=CCNC(=O)CN1C(=O)C2C3c4ccccc4C(c4ccccc43)C2C1=O (stereo not given),inconclusive: 233%
23,CC(C)c1ccc2[nH]c(O)c(N=NC(=O)c3cccc(S(=O)(=O)Nc4cccc(Cl)c4)c3)c2c1,inconclusive: 39.2%

row,SMILES,binding response (% of control)
1,COCCNC(=S)N/N=C/c1ccc([N+](=O)[O-])cc1,inconclusive: 101%
2,CCOC(=O)CNC(=S)n1ncnc1N,inactive: 86%
3,Cc1cc(C(=O)CSc2cccc[n+]2[O-])c(C)n1-c1ccc(OC(F)F)cc1,inconclusive: 106%
4,Cc1ccc(N(CC(O)CN2CCCC2)S(=O)(=O)c2ccccc2)cc1 (stereo not given),inactive: 99.4%
5,Cc1cccc(Oc2ccc(NC(=O)c3ccccc3C(=O)O)cc2)c1,inconclusive: 85.1%
6,C=CCn1c(-c2cnn(-c3ccccc3)c2N)n[nH]c1=S,inconclusive: 116%
7,CC(C)(C)OC(=O)N1CCC[C@H]1C(=O)NCc1ccc(Cl)cc1Cl,inconclusive: 86.4%
8,O=C(NCC(=O)N1CC(O)CC1C(=O)N1CCCC1C(=O)OCc1ccccc1)OCc1ccccc1 (stereo not given),inactive: 93.7%
9,Cc1nc2sc(C(c3ccccc3)N3CCN(CCO)CC3)c(O)n2n1 (stereo not given),inconclusive: 152%
10,Cc1ccc(OCCN2CCN(C(=O)CCC(=O)Nc3nnc(CC(C)C)s3)CC2)cc1,inconclusive: 157%
11,OCC1(Cc2ccccc2)CCN(Cc2ccc(C(F)(F)F)cc2)CC1,inactive: 103%
12,CCOc1ccc(Cc2n[nH]c(=S)n2Cc2ccccc2)cc1,inactive: 96.3%
13,CC1CCCC(C)N1CC(O)COc1c(F)cc(Br)cc1F (stereo not given),inconclusive: 104%
14,CCc1n[nH]c(=S)n1/N=C/c1c(C)nn(-c2ccccc2)c1Cl,inconclusive: 103%
15,O=S(=O)(CC(O)CS(=O)(=O)c1ccc(Cl)cc1)c1ccccc1 (stereo not given),inconclusive: 103%
16,Cc1ccc2cccnc2c1NC(=S)NC(=O)c1ccccc1,inactive: 104%
17,Nc1nc(C(F)(F)F)cc(=O)n1N,inconclusive: 104%
18,CSc1ccccc1NC(=O)CNCCCN1CCOCC1,inconclusive: 96.3%
19,Nc1ccc(-c2ccc(N)c(C(=O)O)c2)cc1C(=O)O,inconclusive: 93.8%
20,COc1cccc(C(=O)NNC(=O)Cc2cccs2)c1,inactive: 94.2%
21,Cc1ccc(S(=O)(=O)Nc2ccc(NC(=O)c3c(F)c(F)c(F)c(F)c3F)cc2)cc1,inactive: 103%

# Source: PubChem BioAssay AID1439 (NMMLSC, 2008)
